Tests used:
Experiment in all cases: Cytotoxicity / antiproliferative activity, MTS test
Assay type in all cases: cell-based
HCT 116 p53+/+ = conditions: Homo sapiens, 72-h incubation
Text: (§1) The human colon carcinoma cell line HCT 116 wild type (p53^+/+) and the human breast carcinoma cell line MCF-7 were obtained from ATCC. The human colon cancer cell line HCT 116, which has a p53 deletion (p53^-/-), was kindly provided by prof. M. Rusin from the Maria Sklodowska-Curie Memorial Cancer Centre and Institute of Oncology in Gliwice, Poland. The glioblastoma cell line U-251 was kindly provided by prof. G. Kramer-Marek from The Institute of Cancer Research in London, United Kingdom. The pancreatic cell line PANC-1 and the human chronic myelogenous leukemia cell line K562 were purchased from Sigma-Aldrich. The adherent cell lines were cultured in Dulbecco’s modified Eagle’s medium (DMEM) containing 12% heat-inactivated fetal bovine serum (all from Sigma-Aldrich) with a mix of two standard antibiotics: 1% v/v of penicillin and streptomycin (Gibco) in 75 cm^2 flasks (Nunc). The suspension cell line K562 was cultured in an RPMI-1640 medium (Sigma-Aldrich), which had been supplemented with 10% heat-inactivated foetal bovine serum and the antibiotics. All of these cell lines were grown under standard conditions at 37 °C in a 5% CO2 humidified atmosphere. Prior to beginning the experiments, all of the cell lines were subjected to routine mycoplasma testing with specific Mycoplasma primers using the PCR technique.
(§2) The exponentially growing cells for all of the cell lines were seeded in 96-well plates (Nunc) at a density of 5000 cells/well and incubated at 37 °C for 24 h. The assay was performed following a 72-h incubation with the various concentrations of the compounds that were being tested. Then, 20 µL of CellTiter 96®AQueous One Solution-MTS (Promega) solution was added to each well (with 100 µL DMEM without phenol red) and incubated for 1 h at 37 °C. The optical densities of the samples were analyzed at 490 nm using a multi-plate reader (Synergy 4, BioTek). The results are expressed as the percentage of the control and were calculated as the inhibitory concentration (IC50) values using GraphPad Prism 7. Each individual compound was tested in triplicate in a single experiment with each experiment being repeated five times.

HCT 116 p53-/- = conditions: Homo sapiens, 72-h incubation
Text: as §1, §2

K562 = conditions: Homo sapiens, 72-h incubation
Text: as §1, §2

MCF-7 = conditions: Homo sapiens, MCF7, 72-h incubation
Text: as §1, §2

PANC-1 = conditions: Homo sapiens, 72-h incubation
Text: as §1, §2

U-251 = conditions: Homo sapiens, 72-h incubation
Text: as §1, §2

How did the IC50 (HCT 116 p53+/+) turn out when `CNC(=O)c1ccccc1Sc1ccc2c(/C=C/c3ccccn3)n[nH]c2c1` [Axitinib, axitinib, reference compound] was run?
Its IC50 is > 30 µM.

What about the IC50 (HCT 116 p53-/-) of the same compound?
Its IC50 is > 30 µM.

What about the IC50 (K562) of the same compound?
Its IC50 is 0.1 ± 0.01 µM.

What about the IC50 (MCF-7) of the same compound?
The IC50 was > 30 µM.

What about the IC50 (PANC-1) of the same compound?
The IC50 was > 30 µM.

And the IC50 (U-251)?
Its IC50 is > 30 µM.

Source: publication PMC7139656, “The Landscape of the Anti-Kinase Activity of the IDH1 Inhibitors” (Cancers, 2020)
